No constants are given. Whether binding was seen depends on the method and setting. Binding seen in cells or lysates may run through a third protein. Some entries that bind do so weakly or less than the wild type. Sequences can lack the tags named with a protein.
Target: T1, EGFP-tagged KDM2A, Q9Y2K7
T1 chain: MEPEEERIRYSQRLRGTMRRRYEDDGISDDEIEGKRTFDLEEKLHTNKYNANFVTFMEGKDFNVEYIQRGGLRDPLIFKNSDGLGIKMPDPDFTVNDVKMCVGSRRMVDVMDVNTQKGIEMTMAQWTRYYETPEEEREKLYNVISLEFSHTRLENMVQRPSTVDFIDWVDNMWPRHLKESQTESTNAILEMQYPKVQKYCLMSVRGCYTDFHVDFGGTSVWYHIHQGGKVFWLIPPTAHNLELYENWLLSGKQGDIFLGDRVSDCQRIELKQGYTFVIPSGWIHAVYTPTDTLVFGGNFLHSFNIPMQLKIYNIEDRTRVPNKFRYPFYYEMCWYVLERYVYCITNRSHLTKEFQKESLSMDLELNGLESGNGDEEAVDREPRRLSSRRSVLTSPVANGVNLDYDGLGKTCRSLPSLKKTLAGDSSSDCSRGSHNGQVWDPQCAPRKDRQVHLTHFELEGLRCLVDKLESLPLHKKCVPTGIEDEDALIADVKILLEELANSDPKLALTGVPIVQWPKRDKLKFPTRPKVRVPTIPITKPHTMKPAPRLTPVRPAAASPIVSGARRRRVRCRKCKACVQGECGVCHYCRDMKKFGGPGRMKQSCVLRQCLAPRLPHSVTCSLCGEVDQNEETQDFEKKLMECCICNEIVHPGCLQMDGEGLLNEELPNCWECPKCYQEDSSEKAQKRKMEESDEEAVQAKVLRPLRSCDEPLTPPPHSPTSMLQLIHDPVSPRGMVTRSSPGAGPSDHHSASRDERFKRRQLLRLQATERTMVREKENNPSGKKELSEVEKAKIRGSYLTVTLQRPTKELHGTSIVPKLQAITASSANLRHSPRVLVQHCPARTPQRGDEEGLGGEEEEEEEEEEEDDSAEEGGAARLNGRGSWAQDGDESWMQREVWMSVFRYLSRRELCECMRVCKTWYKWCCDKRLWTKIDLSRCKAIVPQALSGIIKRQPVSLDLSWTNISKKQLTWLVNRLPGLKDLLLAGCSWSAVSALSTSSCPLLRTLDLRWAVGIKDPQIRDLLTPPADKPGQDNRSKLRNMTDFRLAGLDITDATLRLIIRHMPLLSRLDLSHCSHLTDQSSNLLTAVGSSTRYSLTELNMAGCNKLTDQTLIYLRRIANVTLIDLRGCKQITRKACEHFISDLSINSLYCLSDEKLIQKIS
Test: co-IP; GFP-trap (Chromotek EGFP-nanobody agarose beads): 0.5 mg whole cell extract of HEK293T cells overexpressing an EGFP-tagged protein, 2 h at +4 °C; extracts diluted to 150 mM NaCl and 0.1% NP-40; co-trapped proteins shown by Western blot
Conditions: remark: other sources report otherwise

binding: binds
B1: beta-catenin (endogenous), P35222 1-781 (protein)
chain: MATQADLMELDMAMEPDRKAAVSHWQQQSYLDSGIHSGATTTAPSLSGKGNPEEEDVDTSQVLYEWEQGFSQSFTQEQVADIDGQYAMTRAQRVRAAMFPETLDEGMQIPSTQFDAAHPTNVQRLAEPSQMLKHAVVNLINYQDDAELATRAIPELTKLLNDEDQVVVNKAAVMVHQLSKKEASRHAIMRSPQMVSAIVRTMQNTNDVETARCTAGTLHNLSHHREGLLAIFKSGGIPALVKMLGSPVDSVLFYAITTLHNLLLHQEGAKMAVRLAGGLQKMVALLNKTNVKFLAITTDCLQILAYGNQESKLIILASGGPQALVNIMRTYTYEKLLWTTSRVLKVLSVCSSNKPAIVEAGGMQALGLHLTDPSQRLVQNCLWTLRNLSDAATKQEGMEGLLGTLVQLLGSDDINVVTCAAGILSNLTCNNYKNKMMVCQVGGIEALVRTVLRAGDREDITEPAICALRHLTSRHQEAEMAQNAVRLHYGLPVVVKLLHPPSHWPLIKATVGLIRNLALCPANHAPLREQGAIPRLVQLLVRAHQDTQRRTSMGGTQQQFVEGVRMEEIVEGCTGALHILARDVHNRIVIRGLNTIPLFVQLLYSPIENIQRVAAGVLCELAQDKEAAEAIEAEGATAPLTELLHSRNEGVATYAAAVLFRMSEDKPQDYKKRLSVELTSSLFRTEPMAWNETADLGLDIGAQGEPLGYRQDDPSYRSFHSGGYGQDALGMDPMMEHEMGGHHPGADYPVDGLPDLGHAQDLMDGLPPGDSNQLAWFDTDL
